The supplement of paper PMC10849652
The other results are listed elsewhere or left out.

Amino acid sequences for entries named in this document (tags omitted). A change or cut given only in a name is not applied to a line headed by its entry.
UniProt Q9H7N4: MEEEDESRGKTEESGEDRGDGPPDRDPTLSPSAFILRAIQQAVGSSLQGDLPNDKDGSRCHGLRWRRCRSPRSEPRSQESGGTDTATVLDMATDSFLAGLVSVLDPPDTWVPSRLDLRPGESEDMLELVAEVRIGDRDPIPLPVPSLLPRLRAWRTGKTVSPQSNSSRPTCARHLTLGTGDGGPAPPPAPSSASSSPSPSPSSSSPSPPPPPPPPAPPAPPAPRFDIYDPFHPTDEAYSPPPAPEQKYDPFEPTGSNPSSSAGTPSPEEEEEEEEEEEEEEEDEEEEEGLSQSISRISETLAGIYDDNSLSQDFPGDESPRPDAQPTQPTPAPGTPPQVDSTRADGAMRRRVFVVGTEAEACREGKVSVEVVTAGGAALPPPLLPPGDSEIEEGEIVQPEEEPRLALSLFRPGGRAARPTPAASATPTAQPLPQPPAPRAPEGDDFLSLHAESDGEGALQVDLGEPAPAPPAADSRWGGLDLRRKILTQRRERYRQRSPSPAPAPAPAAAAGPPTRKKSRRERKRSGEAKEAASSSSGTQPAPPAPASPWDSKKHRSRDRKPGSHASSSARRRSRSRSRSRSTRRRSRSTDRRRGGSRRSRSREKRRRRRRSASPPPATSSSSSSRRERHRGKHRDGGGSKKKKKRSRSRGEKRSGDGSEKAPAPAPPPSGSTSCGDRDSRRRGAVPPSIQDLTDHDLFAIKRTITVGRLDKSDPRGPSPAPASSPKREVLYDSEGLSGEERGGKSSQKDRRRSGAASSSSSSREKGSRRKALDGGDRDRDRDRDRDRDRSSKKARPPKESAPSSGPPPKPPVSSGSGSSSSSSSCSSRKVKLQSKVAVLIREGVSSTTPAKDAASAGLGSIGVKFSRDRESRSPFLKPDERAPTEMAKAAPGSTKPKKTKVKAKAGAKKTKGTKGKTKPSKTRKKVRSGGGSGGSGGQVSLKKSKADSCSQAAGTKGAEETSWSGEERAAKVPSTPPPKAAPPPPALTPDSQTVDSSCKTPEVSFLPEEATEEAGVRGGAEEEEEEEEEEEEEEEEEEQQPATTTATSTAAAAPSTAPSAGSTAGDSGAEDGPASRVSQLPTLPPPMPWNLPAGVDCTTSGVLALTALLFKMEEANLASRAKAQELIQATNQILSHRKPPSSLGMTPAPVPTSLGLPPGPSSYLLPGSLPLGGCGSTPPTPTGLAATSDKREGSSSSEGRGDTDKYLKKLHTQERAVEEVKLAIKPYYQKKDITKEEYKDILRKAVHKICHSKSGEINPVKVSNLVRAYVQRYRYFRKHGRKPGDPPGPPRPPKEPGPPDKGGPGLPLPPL
UniProt Q9UHD8: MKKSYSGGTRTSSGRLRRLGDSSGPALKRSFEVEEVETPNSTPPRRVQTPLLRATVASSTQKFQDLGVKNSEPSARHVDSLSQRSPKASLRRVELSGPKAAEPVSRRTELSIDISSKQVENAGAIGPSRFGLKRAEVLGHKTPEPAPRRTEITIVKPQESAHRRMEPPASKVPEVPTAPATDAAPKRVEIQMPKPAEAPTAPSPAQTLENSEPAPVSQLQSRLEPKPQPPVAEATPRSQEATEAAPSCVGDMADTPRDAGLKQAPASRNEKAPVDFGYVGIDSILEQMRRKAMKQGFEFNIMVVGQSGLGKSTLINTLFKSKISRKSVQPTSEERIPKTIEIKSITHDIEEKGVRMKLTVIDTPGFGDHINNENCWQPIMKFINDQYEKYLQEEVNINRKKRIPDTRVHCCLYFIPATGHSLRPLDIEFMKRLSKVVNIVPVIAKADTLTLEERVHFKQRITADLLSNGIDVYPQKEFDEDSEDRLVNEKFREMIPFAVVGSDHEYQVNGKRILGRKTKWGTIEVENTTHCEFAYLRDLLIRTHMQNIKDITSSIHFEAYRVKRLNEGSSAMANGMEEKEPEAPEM
UniProt Q96ER3: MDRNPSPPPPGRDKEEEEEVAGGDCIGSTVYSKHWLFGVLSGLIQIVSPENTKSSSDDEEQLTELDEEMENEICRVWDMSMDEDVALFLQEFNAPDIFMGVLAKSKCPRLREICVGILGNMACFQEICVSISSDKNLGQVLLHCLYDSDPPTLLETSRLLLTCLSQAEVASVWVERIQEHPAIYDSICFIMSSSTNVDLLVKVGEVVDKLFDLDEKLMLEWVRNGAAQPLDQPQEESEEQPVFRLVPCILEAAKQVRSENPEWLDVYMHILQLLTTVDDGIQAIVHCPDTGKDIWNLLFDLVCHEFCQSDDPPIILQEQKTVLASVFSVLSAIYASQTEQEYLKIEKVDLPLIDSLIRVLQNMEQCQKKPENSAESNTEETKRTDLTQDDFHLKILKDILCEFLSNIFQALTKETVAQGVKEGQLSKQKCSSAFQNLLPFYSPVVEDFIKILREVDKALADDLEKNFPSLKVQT
UniProt Q9Y6Y8: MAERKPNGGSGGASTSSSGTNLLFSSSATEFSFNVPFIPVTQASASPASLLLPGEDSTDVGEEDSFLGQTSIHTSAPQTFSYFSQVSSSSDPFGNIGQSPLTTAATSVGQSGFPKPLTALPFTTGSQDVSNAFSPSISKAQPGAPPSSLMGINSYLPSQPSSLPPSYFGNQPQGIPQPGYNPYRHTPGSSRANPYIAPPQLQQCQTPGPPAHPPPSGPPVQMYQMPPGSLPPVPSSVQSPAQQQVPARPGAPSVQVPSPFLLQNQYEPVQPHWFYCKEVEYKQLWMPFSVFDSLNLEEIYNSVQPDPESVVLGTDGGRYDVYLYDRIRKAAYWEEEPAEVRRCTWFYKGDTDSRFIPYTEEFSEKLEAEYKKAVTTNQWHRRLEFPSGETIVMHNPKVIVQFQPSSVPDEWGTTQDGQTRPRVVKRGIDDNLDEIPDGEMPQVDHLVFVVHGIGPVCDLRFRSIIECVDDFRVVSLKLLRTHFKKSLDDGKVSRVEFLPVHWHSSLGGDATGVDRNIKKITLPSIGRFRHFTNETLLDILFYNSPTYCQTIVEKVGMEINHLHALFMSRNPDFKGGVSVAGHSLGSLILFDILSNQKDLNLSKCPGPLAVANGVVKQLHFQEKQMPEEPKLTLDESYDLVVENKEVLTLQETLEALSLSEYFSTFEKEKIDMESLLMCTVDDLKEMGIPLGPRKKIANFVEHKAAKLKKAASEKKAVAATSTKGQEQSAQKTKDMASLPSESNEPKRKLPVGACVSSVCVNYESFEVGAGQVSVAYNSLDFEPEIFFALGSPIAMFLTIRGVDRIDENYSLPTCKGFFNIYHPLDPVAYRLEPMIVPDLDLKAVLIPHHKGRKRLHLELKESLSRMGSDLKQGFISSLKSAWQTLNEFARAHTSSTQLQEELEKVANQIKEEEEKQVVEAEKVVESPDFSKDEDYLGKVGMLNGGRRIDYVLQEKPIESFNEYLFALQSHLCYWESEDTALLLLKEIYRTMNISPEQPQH
UniProt O43819: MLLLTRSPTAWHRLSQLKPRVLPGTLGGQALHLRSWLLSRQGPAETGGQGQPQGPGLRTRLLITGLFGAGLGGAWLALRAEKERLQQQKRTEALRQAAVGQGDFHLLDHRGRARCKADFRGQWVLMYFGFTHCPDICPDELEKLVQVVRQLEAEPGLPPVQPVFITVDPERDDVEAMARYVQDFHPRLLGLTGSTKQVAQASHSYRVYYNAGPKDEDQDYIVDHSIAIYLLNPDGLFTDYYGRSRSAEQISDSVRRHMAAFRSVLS
UniProt Q6IQ49: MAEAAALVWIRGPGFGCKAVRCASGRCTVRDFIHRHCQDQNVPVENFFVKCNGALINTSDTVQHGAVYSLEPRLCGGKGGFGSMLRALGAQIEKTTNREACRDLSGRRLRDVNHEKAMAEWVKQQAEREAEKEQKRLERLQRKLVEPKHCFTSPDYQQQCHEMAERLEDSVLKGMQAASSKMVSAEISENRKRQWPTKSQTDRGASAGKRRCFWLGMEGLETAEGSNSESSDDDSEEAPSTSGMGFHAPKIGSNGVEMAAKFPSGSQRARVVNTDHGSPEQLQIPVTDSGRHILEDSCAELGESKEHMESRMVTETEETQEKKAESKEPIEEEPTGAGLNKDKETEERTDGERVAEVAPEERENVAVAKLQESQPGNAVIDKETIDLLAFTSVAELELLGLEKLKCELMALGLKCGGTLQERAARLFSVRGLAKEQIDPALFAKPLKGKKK
UniProt Q14108: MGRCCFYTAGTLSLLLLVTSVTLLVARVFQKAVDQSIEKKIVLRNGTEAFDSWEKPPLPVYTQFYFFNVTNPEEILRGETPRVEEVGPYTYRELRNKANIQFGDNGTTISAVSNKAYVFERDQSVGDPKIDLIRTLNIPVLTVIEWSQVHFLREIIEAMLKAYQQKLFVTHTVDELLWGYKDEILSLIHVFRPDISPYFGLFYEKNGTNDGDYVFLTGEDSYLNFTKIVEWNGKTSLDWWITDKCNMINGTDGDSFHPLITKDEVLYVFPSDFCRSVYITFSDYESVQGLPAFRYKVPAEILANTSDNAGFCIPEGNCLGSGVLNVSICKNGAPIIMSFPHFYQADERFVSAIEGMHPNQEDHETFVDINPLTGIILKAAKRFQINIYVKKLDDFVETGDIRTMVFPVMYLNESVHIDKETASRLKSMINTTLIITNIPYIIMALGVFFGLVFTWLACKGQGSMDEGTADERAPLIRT
UniProt Q12770: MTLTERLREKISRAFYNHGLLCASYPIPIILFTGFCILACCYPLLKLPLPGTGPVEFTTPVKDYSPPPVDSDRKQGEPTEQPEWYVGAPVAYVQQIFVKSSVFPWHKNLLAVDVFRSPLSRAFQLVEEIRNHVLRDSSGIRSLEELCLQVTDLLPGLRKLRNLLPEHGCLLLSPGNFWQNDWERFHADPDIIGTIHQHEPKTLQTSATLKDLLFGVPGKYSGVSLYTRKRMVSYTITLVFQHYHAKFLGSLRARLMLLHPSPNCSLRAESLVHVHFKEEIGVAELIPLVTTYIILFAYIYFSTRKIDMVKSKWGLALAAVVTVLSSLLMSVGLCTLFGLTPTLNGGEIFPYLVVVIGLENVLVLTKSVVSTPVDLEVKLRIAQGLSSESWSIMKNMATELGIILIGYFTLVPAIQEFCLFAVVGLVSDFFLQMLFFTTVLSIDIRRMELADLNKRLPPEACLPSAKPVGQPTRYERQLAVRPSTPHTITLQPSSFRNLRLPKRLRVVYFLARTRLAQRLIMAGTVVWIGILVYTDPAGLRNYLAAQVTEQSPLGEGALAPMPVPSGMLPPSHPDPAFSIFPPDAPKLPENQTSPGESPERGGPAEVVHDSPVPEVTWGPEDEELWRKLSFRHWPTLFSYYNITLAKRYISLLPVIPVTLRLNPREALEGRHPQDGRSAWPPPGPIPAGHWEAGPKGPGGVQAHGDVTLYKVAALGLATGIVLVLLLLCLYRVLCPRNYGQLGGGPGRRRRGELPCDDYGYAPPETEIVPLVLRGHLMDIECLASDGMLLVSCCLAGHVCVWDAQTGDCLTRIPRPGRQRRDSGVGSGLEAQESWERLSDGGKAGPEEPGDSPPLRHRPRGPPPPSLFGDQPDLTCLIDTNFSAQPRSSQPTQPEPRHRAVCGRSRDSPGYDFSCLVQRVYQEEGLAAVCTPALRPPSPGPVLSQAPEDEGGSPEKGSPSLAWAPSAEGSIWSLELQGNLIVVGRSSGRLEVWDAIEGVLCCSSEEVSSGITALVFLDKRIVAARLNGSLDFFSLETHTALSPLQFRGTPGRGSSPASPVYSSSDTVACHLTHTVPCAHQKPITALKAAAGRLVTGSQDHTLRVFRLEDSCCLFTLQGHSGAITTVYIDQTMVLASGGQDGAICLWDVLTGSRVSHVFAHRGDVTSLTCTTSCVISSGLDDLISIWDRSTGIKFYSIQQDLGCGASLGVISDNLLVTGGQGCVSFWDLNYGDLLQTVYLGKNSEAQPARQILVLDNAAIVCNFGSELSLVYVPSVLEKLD

Assays:
Experiment in all cases: log2 fold change, soluble protein after heating vs DMSO (PISA); higher = thermal stabilisation; K562 lysate, 10 uM; active = over 0.2 and 3.5 SD of the protein, either way, in both replicates (recomputed)
alvocidib = compound: CN1CC[C@H](c2c(O)cc(O)c3c(=O)cc(-c4ccccc4Cl)oc23)[C@H](O)C1 [alvocidib]
Summary of the method: (§1)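 Soluble protein was defined as the supernatant remaining after 21,000xg for 90 min, following pooling of heated aliquots and adjustment to 0.5% NP-40 at 4°C. Before that, crude K562 extract at 1 mg/mL protein in PBS pH 7.4 with 1 mM MgCl2 was treated with 10 μM compound for 30 min and heated for 3 min across 48°C-58°C. Quantification used TMTpro 16plex LC-MS/MS with channel sums equalised, and values are log-two fold changes in thermal stability relative to solvent controls from duplicates.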

Tubastatin A = compound: CN1CCc2c(c3ccccc3n2Cc2ccc(C(=O)NO)cc2)C1 [Tubastatin A]
Summary of the method: as §1

[1] = compound: CNC(=O)C1=CC=CC=C1NC2=NC(=NC=C2Cl)NC3=C(C=C(C=C3)N4CCOCC4)OC
Summary of the method: as §1

defactinib = compound: CNC(=O)c1ccc(Nc2ncc(C(F)(F)F)c(NCc3nccnc3N(C)S(C)(=O)=O)n2)cc1 [defactinib]
Summary of the method: as §1

[2] = compound: CNc1nc(-c2ccc3c(N)n[nH]c3c2)cc(N2C[C@@H](C(=O)NC3CCCCC3)CC[C@H]2C)n1
Summary of the method: as §1

encorafenib = compound: COC(=O)N[C@@H](C)CNc1nccc(-c2cn(C(C)C)nc2-c2cc(Cl)cc(NS(C)(=O)=O)c2F)n1 [encorafenib]
Summary of the method: as §1

[3] = compound: COC(=O)[C@H](CCSC)NC(=O)C1=C(C=C(C=C1)NC[C@H](CS)N)C2=CC=CC=C2
Summary of the method: as §1

alisertib = compound: COc1cc(Nc2ncc3c(n2)-c2ccc(Cl)cc2C(c2c(F)cccc2OC)=NC3)ccc1C(=O)O [alisertib]
Summary of the method: as §1

[4] = compound: COc1cc2nc(-c3cc(F)ccc3O)nc(N[C@@H]3CNC[C@H]3C(C)(C)O)c2cc1OC
Summary of the method: as §1

gefitinib = compound: COc1cc2ncnc(Nc3ccc(F)c(Cl)c3)c2cc1OCCCN1CCOCC1 [gefitinib]
Summary of the method: as §1

lapatinib = compound: CS(=O)(=O)CCNCc1ccc(-c2ccc3ncnc(Nc4ccc(OCc5cccc(F)c5)c(Cl)c4)c3c2)o1 [lapatinib]
Summary of the method: as §1

pictilisib = compound: CS(=O)(=O)N1CCN(Cc2cc3nc(-c4cccc5[nH]ncc45)nc(N4CCOCC4)c3s2)CC1 [pictilisib]
Summary of the method: as §1

crizotinib = compound: C[C@@H](Oc1cc(-c2cnn(C3CCNCC3)c2)cnc1N)c1c(Cl)ccc(F)c1Cl [crizotinib]
Summary of the method: as §1

[5] = compound: C[C@H](C1=CC=C(C=C1)C(=O)NC2=C3C=CNC3=NC=C2)N
Summary of the method: as §1

duvelisib = compound: C[C@H](Nc1ncnc2nc[nH]c12)c1cc2cccc(Cl)c2c(=O)n1-c1ccccc1 [duvelisib]
Summary of the method: as §1

gandotinib = compound: Cc1cc(Nc2cc(CN3CCOCC3)c3nc(C)c(Cc4ccc(Cl)cc4F)n3n2)n[nH]1 [gandotinib]
Summary of the method: as §1

tozasertib = compound: Cc1cc(Nc2cc(N3CCN(C)CC3)nc(Sc3ccc(NC(=O)C4CC4)cc3)n2)n[nH]1 [tozasertib]
Summary of the method: as §1

doramapimod = compound: Cc1ccc(-n2nc(C(C)(C)C)cc2NC(=O)Nc2ccc(OCCN3CCOCC3)c3ccccc23)cc1 [doramapimod]
Summary of the method: as §1

bafetinib = compound: Cc1ccc(NC(=O)c2ccc(CN3CC[C@H](N(C)C)C3)c(C(F)(F)F)c2)cc1Nc1nccc(-c2cncnc2)n1 [bafetinib]
Summary of the method: as §1

[6] = compound: Cc1cccc(CC(=O)N2CCc3c2ccc(-c2cn(C)c4ncnc(N)c24)c3F)n1
Summary of the method: as §1

Measured: log2 fold change

SCAF1 (UniProt Q9H7N4)
inactive: alvocidib 0.054 | Tubastatin A 0.034 | [1] -0.051 | defactinib 0.046 | [2] 0.051 | encorafenib -0.028 | [3] -0.066 | alisertib 0.128 | [4] -0.02 | gefitinib 0.129 | lapatinib -0.06 | pictilisib -0.107 | crizotinib -0.011 | [5] 0.017 | duvelisib -0.337 | gandotinib -0.074 | tozasertib -0.023 | doramapimod 0.052 | bafetinib -0.27 | [6] -0.096

SEPTIN9 (UniProt Q9UHD8)
inactive: alvocidib -0.067 | Tubastatin A 0.028 | [1] -0.011 | defactinib -0.021 | [2] -0.002 | encorafenib -0.045 | [3] 0.016 | alisertib -0.02 | [4] 0.006 | gefitinib -0.015 | lapatinib 0 | pictilisib -0.011 | crizotinib 0.015 | [5] -0.197 | duvelisib 0.003 | gandotinib 0.069 | tozasertib -0.02 | doramapimod 0.009 | bafetinib -0.034 | [6] 0.074

SAAL1 (UniProt Q96ER3)
inactive: alvocidib 0 | Tubastatin A -0.071 | [1] 0.011 | defactinib -0.016 | [2] -0.062 | encorafenib 0.016 | [3] 0.029 | alisertib -0.006 | [4] -0.039 | gefitinib 0.009 | lapatinib -0.002 | pictilisib -0.007 | crizotinib 0.007 | [5] 0.027 | duvelisib 0.036 | gandotinib -0.093 | tozasertib -0.006 | doramapimod 0.021 | bafetinib -0.013 | [6] -0.022

SEC23IP (UniProt Q9Y6Y8)
inactive: alvocidib -0.003 | Tubastatin A -0.02 | [1] -0.004 | defactinib -0.012 | [2] -0.029 | encorafenib 0.048 | [3] 0.012 | alisertib 0.022 | [4] -0.023 | gefitinib -0.007 | lapatinib -0.004 | pictilisib -0.017 | crizotinib -0.067 | [5] 0.036 | duvelisib -0.011 | gandotinib -0.105 | tozasertib -0.01 | doramapimod 0.024 | bafetinib -0.013 | [6] -0.018

SCO2 (UniProt O43819)
inactive: alvocidib -0.009 | Tubastatin A 0.039 | [1] 0.073 | defactinib 0.008 | [2] -0.007 | encorafenib 0.027 | alisertib -0.115 | [4] 0.046 | gefitinib 0.114 | lapatinib 0.118 | pictilisib -0.057 | crizotinib 0.026 | [5] -0.163 | duvelisib 0.092 | gandotinib 0.048 | tozasertib -0.007 | doramapimod 0.002 | bafetinib 0.029 | [6] 0.101
active: [3] -0.607

SDE2 (UniProt Q6IQ49)
inactive: alvocidib -0.02 | Tubastatin A -0.025 | [1] 0.096 | defactinib 0.009 | [2] 0.091 | encorafenib 0.022 | [3] -0.04 | alisertib -0.006 | [4] -0.006 | gefitinib 0.004 | lapatinib 0.025 | pictilisib 0.003 | crizotinib 0.022 | [5] -0.05 | duvelisib 0.011 | gandotinib 0.094 | tozasertib 0.012 | doramapimod 0.027 | bafetinib -0.044 | [6] 0.007

SCARB2 (UniProt Q14108)
inactive: alvocidib 0.046 | Tubastatin A 0.018 | [1] 0.016 | defactinib -0.002 | [2] -0.005 | encorafenib -0.003 | [3] -0.082 | alisertib -0.028 | [4] 0.026 | gefitinib -0.01 | lapatinib 0.002 | pictilisib -0.026 | crizotinib 0.034 | [5] 0.106 | duvelisib 0.052 | gandotinib -0.05 | tozasertib 0.036 | doramapimod -0.015 | bafetinib 0.004 | [6] -0.085

Copied from the entries so far (2 entries):
SCAF1 (UniProt Q9H7N4)
inactive: alvocidib 0.054 | Tubastatin A 0.034 | [1] -0.051 | defactinib 0.046 | [2] 0.051 | encorafenib -0.028 | [3] -0.066 | alisertib 0.128 | [4] -0.02 | gefitinib 0.129 | lapatinib -0.06 | pictilisib -0.107 | crizotinib -0.011 | [5] 0.017 | duvelisib -0.337 | gandotinib -0.074 | tozasertib -0.023 | doramapimod 0.052 | bafetinib -0.27 | [6] -0.096

SEPTIN9 (UniProt Q9UHD8)
inactive: alvocidib -0.067 | Tubastatin A 0.028 | [1] -0.011 | defactinib -0.021 | [2] -0.002 | encorafenib -0.045 | [3] 0.016 | alisertib -0.02 | [4] 0.006 | gefitinib -0.015 | lapatinib 0 | pictilisib -0.011 | crizotinib 0.015 | [5] -0.197 | duvelisib 0.003 | gandotinib 0.069 | tozasertib -0.02 | doramapimod 0.009 | bafetinib -0.034 | [6] 0.074

Further results follow:

SCAP (UniProt Q12770)
inactive: alvocidib -0.062 | Tubastatin A -0.094 | [1] -0.09 | defactinib -0.092 | [2] -0.113 | encorafenib -0.024 | [3] -0.113 | alisertib -0.047 | [4] 0.013 | gefitinib -0.035 | lapatinib 0.009 | pictilisib -0.017 | crizotinib -0.046 | [5] 0.013 | duvelisib 0.07 | gandotinib -0.041 | tozasertib 0.066 | doramapimod -0.003 | bafetinib 0.119 | [6] 0.033
